Measurements published in publication doi:10.1101/2022.12.08.519265.
These are yes or no findings as the source states them, for the method shown. In cells and extracts the contact can be indirect. Some entries that bind do so weakly or less than the wild type.

Amino acid sequences for entries named in this document (tags omitted).
UniProt Q9Y572: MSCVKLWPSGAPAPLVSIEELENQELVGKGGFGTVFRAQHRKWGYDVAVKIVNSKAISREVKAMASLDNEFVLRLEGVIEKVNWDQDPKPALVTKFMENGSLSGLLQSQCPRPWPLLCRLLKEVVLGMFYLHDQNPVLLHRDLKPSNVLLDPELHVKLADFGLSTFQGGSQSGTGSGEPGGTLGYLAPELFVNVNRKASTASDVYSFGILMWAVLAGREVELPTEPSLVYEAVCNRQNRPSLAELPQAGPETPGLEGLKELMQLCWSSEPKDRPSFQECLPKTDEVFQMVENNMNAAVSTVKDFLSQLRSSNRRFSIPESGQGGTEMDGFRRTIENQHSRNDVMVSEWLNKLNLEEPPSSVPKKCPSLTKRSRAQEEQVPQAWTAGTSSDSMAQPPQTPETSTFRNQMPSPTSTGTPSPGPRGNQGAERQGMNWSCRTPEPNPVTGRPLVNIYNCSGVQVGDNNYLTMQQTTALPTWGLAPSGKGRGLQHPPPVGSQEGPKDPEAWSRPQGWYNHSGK
UniProt Q13546: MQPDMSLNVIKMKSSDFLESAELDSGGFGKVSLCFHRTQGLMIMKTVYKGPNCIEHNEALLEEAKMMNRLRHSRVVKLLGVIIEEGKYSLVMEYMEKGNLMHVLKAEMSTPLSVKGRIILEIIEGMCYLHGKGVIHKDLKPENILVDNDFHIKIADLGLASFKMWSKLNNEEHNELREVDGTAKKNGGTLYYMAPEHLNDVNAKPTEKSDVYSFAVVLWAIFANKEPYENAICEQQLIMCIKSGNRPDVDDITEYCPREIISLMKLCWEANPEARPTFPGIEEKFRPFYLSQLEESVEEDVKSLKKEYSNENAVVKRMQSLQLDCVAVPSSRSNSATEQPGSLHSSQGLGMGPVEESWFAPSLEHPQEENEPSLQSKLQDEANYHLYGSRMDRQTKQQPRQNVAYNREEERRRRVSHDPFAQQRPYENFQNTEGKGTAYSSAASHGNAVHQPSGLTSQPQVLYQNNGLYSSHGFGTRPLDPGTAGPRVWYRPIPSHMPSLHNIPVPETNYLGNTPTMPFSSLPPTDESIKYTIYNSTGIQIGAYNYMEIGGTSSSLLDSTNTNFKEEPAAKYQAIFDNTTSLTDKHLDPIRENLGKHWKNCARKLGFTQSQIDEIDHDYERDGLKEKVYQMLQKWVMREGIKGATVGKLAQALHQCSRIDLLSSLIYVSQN

Target: Strep-tagged RIPK3 wild-type (WT) (UniProt Q9Y572)
Test: co-IP

binding: binds
Substance: phosphorylated RIPK1 S166 (from UniProt Q13546 1-671)
